For one compound, GI50 and IC50 results are on record in patent US12570661B2, “Isoform-specific aldehyde dehydrogenase inhibitors” (The Board of Trustees of the Leland Stanford Junior …, priority 2020, dated 2026).

Protein sequences, listed by entry. Tags and fused reporters are not part of them. Residues count along the entry.
UniProt P30837, 18-517 limits assumed: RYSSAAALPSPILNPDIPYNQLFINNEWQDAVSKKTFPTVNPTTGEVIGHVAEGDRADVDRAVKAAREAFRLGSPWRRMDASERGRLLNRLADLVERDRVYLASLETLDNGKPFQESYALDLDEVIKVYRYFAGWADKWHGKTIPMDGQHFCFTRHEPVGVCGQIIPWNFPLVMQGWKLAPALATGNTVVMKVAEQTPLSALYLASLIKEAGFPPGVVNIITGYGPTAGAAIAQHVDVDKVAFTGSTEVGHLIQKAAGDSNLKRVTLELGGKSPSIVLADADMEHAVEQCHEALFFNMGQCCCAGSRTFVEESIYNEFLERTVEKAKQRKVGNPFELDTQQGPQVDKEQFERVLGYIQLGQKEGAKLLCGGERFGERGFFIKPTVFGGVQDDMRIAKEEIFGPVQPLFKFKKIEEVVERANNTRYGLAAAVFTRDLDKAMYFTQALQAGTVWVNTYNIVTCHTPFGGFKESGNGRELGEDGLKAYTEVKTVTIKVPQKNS

The test system of one data set is HEK293T cells. Here is the method:
HEK-293T cells were seeded into a 96-well plate at a density of 5×10^3 cells/well and treated with varying concentrations of selected compounds or an equivalent amount of DMSO vehicle. The cells were cultured for 4-5 days without a media change, and after the DMSO-treated cells approached 100% confluence, the cell viabilities were measured using a CellTiter-Glo 3D Cell Viability Assay kit (Promega) and a Veritas microplate luminometer (Turner BioSystems) as described above.

Another data set deals with SW480 cells (spheroid). Kind of data set: Matrigel spheroid growth / viability assay, SW480. The class given is cell-based. To be noted: read-out: Spheroid SW480 GI50; Matrigel spheroid culture, 7 days. Here is the method: To prepare Matrigel-coated culture plates, 96-well and 24-well plates were placed on ice and coated with 25 μL or 300 μL, respectively, of Matrigel matrix (Corning, LDEV-free) that had been thawed overnight at 4° C. The plates were then placed in a 37° C. incubator for 30 min to allow the Matrigel to solidify. […]
To quantify spheroid growth at the 7-day endpoint, unstained spheroids were imaged with phase-contrast illumination using a Keyence BZ-X710 microscope. […] Spheroid sizes were quantified with ImageJ (Fiji) software using masks created with the default “Threshold” function and foreground/background adjustments to optimize masking fidelity. […]
SW480 or HCT116 cells were seeded into regular or Matrigel-coated 96-well plates at a density of 1000 cells/well. […] Each culture was maintained for 7 days, and then cell viabilities were measured using a CellTiter-Glo 3D Cell Viability Assay kit (Promega). […] A 150-μL aliquot from each well was then transferred into a white opaque 96-well assay plate (flat-bottom and non-treated; Corning Costar) and luminescence intensities were measured with a Veritas microplate luminometer (Turner BioSystems).

For a further data set, the system named is SW480 cells (adherent). In words: Cell viability assay, adherent SW480 cultures. Conditions: read-out: Adherent SW480 GI50; adherent culture, 7 days. Here is the method: SW480 or HCT116 cells were seeded into regular or Matrigel-coated 96-well plates at a density of 1000 cells/well. The cells were cultured in the corresponding adherent or spheroid culture medium (200 μL/well) containing the designated compounds or an equivalent amount of DMSO vehicle. Each culture was maintained for 7 days, and then cell viabilities were measured using a CellTiter-Glo 3D Cell Viability Assay kit (Promega). Briefly, 100 μL of the culture medium was removed from each well and replaced with 100 μL 3D Cell Assay reagent. The cells in each well were next homogenized by vigorous pipetting, and the plate was incubated for 10 min at room temperature to stabilize the chemiluminescent signal. A 150-μL aliquot from each well was then transferred into a white opaque 96-well assay plate (flat-bottom and non-treated; Corning Costar) and luminescence intensities were measured with a Veritas microplate luminometer (Turner BioSystems).

In the next data set the target is ALDH1B1 (Homo sapiens, UniProt P30837). Kind of data set: ALDH1B1 enzyme kinetics assay (NADH fluorescence, acetaldehyde substrate). Conditions: read-out: ALDH1B1(in vitro) IC50; 1 μg/mL enzyme, 1 mM acetaldehyde, 1 mM NAD+. Here is the method: Cloning, expression, and purification of human recombinant ALDH1A1, ALDH1A3, ALDH2, ALDH3A1, ALDH3A2, ALDH4A1, ALDH5A1 and ALDH7A1 isozymes were conducted as described previously (Chen, C. H. et al. (2015) Proc. Natl. Acad. Sci. U.S.A. 112, 3074-3079). Human ALDH1A2 (Origene, SC109995) and ALDH1B1 (T. Hurley, Indiana University) plasmids were cloned into the pET-15b expression vector (Novagen, 69661-3) containing an N-terminal hexahistidine tag. The mitochondria-targeting sequence of ALDH1B1 was also removed. […] The protein concentration for each fraction was measured (500 μL elution volume was collected as one fraction and was immediately mixed with 500 μL glycerol. The protein concentration for each fraction was measured (600 nm Protein Assay Reagent; Thermo Fisher Scientific), and protein-containing fractions were diluted with an equal volume of glycerol and stored at −80° C. Samples from each step were also collected for SDS-PAGE gel analysis. For ALDH1B1 protein co-expression with chaperones, pET-15b-ALDH1B1 and GroEL/GroES (Addgene, plasmid pBB541) plasmids were co-transformed into competent BL21 E. coli cells, which were subsequently grown in 1 L of Luria-Bertani medium containing 100 μg/mL ampicillin and 50 μg/mL spectinomycin at 37° C. […]

The structures given here were assigned with low confidence; some may be wrong.

By GI50 is commonly meant the concentration at which growth is held to half of that of the control. A word on the IC50: it is the concentration that inhibits the measured activity by half. With `CCc1cc(Cl)ccc1C1=CN(c2ccc(-c3ccccc3OC)cc2)C2=NCCCN12`, the GI50 in the data set on HEK293T cells was 1700 nM; in the data set on SW480 cells (spheroid) it was 230 nM; with SW480 cells (adherent), 1900 nM. In addition, the IC50 at ALDH1B1 worked out at 59 nM.
